Reference: patent US20140127157A1, “ANTIVIRAL ACTIVITY OF TYROSINE KINASE INHIBITORS AGAINST HEPATITUS C VIRUS” (priority 2012, published 2014)
Like-named read-outs stand apart in the source and are kept apart here.

How the values were obtained:
[1] = tested on: HCVcc; assay: microbe, parasite or virus in culture; settings: Hepatitis C virus
From the text: The infectious cell culture system for HCV (HCVcc) is based on a unique full length strain of genotype 2a derived from a patient with fulminant hepatitis (JFH-1). HCVcc allows the complete virus life cycle to be studied in cell culture. A chimeric strain of JFH-1, termed Jc1JFH, is capable of more robust growth in tissue culture and can be engineered to encode a reporter gene. The activity of compounds such as nilotinib against HCVcc can be investigated using a Jc1JFH reporter virus encoding luciferase (Table 1). Naïve Huh-7.5 cells are treated with serially diluted compounds in DMSO for 2 h prior to infection with HCVcc. […] Both EC50 and CC50 values are normalized to cells treated with DMSO alone.

[2] = tested on: HCVrep; assay: HCV replicon (HCVrep) luciferase assay, JFH-1-based replicon cell line; settings: Hepatitis C virus, 72 h, read-out: HCVrep (EC50, μM)
From the text: HCVrep comprises a stable cell line harboring a sub-genomic replicon encoding a selectable marker (e.g., neomycin phosphotransferase), a reporter gene (e.g., luciferase) and the minimal HCV replicase proteins, NS3 to NS5B. Since the subgenomic replicon is non-infectious, the HCVrep system is used to study viral RNA replication independently of other stages of the life cycle, including virus entry/assembly/release. […] To determine the effects of compounds such as nilotinib on HCV RNA replication, a stable JFH-1-based replicon cell line encoding luciferase was established.

**Q.** Which results are given for Cc1ccc(NC(=O)c2ccc(CN3CCN(C)CC3)cc2)cc1Nc1nccc(-c2cccnc2)n1 [Imatinib, imatinib]?
**A.** EC50 ([1]; Huh7.5): 4.63 µM; EC50 ([1]; Huh7.5, read-out: HCVcc (EC50, μM)): 4.6 µM; EC50 [2]: ≥ 20 µM
